# Results published in the supplement of paper PMC6414424.
# ± gives the standard deviation of the averaged measurements. This is one part of the list.
# System: APPdp1-6 iPSC-derived neurons
# Assay: pThr231Tau/total Tau ratio Z-score vs DMSO vehicle wells; higher = more pThr231Tau relative to total Tau
# Details: 5 µM; treatment time 5 days
row,Structure (SMILES),pThr231Tau/total Tau ratio Z-score
1,CC(=O)OCC(=O)[C@@]1(O)CC[C@H]2[C@@H]3CCC4=CC(=O)C=C[C@]4(C)[C@@]3(Cl)[C@@H](Cl)C[C@@]21C,1.36 ± 1.3
2,O=C(O)CCCCCCCC(=O)O [Azelaic acid],2.43 ± 4
3,CC(=O)OCC(=O)[C@@]1(O)CC[C@H]2[C@@H]3CCC4=CC(=O)CC[C@]4(C)[C@@]3(F)[C@@H](O)C[C@@]21C [Prestw-281],-0.516 ± 0.018
4,NC(N)=NS(=O)(=O)c1ccc(N)cc1 [Prestw-10],0.326 ± 2.2
5,OC(Cn1cncn1)(Cn1cncn1)c1ccc(F)cc1F [Prestw-1417],1.47 ± 2.2
6,CCCOc1cc(N)ccc1C(=O)OCCN(CC)CC [Prestw-1059],-2.11 ± 1.4
7,NCCc1c[nH]cn1 [Histamine],0.297 ± 1.6
8,CC[N+](C)(C)c1cccc(O)c1 [Prestw-83],0.182 ± 0.61
9,CC(=O)[C@@]1(O)CC[C@H]2[C@@H]3C=C(Cl)C4=CC(=O)[C@@H]5C[C@@H]5[C@]4(C)[C@H]3CC[C@@]21C [CYPROTERONE    Therap cat: antiandrogen],2.81 ± 4
10,Nc1[nH]cnc2ncnc1-2 [Adenine],1.2 ± 1.2
11,COc1cc(C(=O)OCCCN2CCCN(CCCOC(=O)c3cc(OC)c(OC)c(OC)c3)CC2)cc(OC)c1OC [Prestw-236],0.655 ± 0.39
12,CC[N+](C)(CC)CCOC(=O)C(O)(c1ccccc1)C1CCCCC1 (configuration not stated),1.26 ± 2.4
13,CN(C)CCCN1c2ccccc2Sc2ccc(C(F)(F)F)cc21 [Prestw-53],-1.13 ± 0.079
14,CC1(C)OC(=O)C(OCC2CC2)=C1c1ccc(S(C)(=O)=O)cc1,1.43 ± 0.61
15,CCCCC(O)c1ccccc1 (configuration not stated) [Prestw-1501],0.151 ± 1.8
16,CCN(CC)CCOC(=O)C1(C2CCCCC2)CCCCC1 [Prestw-48],-0.639 ± 0.85
17,CN1CCN(C2=Nc3ccccc3Oc3ccc(Cl)cc32)CC1 [Prestw-132],-0.831 ± 1.4
18,NCc1ccccc1CC(=O)N[C@@H]1C(=O)N2C(C(=O)O)=C(CSc3nnnn3CC(=O)O)CS[C@H]12 [Prestw-470],-0.0153 ± 0.15
19,COc1c2occc2cc2ccc(=O)oc12,0.507 ± 1.2
20,Oc1ccc2ccccc2c1 [beta-NAPHTHOL],-0.562 ± 0.18
21,C[N+]1(C)CCC(OC(=O)C(O)(c2ccccc2)C2CCCC2)C1 (configuration not stated) [Prestw-746],-0.38 ± 1
22,N#Cc1ccc(C(c2ccc(C#N)cc2)n2cncn2)cc1 [Prestw-1025],-1.44 ± 0.42
23,Clc1ccc(CCC(Cn2ccnc2)Sc2c(Cl)cccc2Cl)cc1 (configuration not stated) [Prestw-408],-1.17 ± 0.34
24,O=C(O)Cc1ccc(-c2ccccc2)cc1 [Prestw-893],0.659 ± 0.29

# Another view of part of the listing above:
row	Structure (SMILES)	pThr231Tau/total Tau ratio Z-score
2	O=C(O)CCCCCCCC(=O)O [Azelaic acid]	2.43 ± 4
3	CC(=O)OCC(=O)[C@@]1(O)CC[C@H]2[C@@H]3CCC4=CC(=O)CC[C@]4(C)[C@@]3(F)[C@@H](O)C[C@@]21C [Prestw-281]	-0.516 ± 0.018
8	CC[N+](C)(C)c1cccc(O)c1 [Prestw-83]	0.182 ± 0.61

# Next part.

row,Structure (SMILES),pThr231Tau/total Tau ratio Z-score
1,C[C@@H]1C[C@H]2[C@@H]3C[C@H](F)C4=CC(=O)C=C[C@]4(C)[C@@]3(F)[C@@H](O)C[C@]2(C)[C@@]1(O)C(=O)CO [Prestw-734],-0.56 ± 0.73
2,O=C(O)c1cn(-c2ccc(F)cc2)c2cc(N3CCNCC3)c(F)cc2c1=O [Prestw-1339],1.14 ± 0.79
3,"O=C([O-])c1ccccc1[O-].[Bi+3].[OH-] [BISMUTH SUBSALICYLATE, antidiarrheal, antacid, antiulcer]",1.43 ± 1.8
4,CCCc1nc(C(C)(C)O)c(C(=O)OCc2oc(=O)oc2C)n1Cc1ccc(-c2ccccc2-c2nn[nH]n2)cc1 [Prestw-1190],-0.802 ± 1.1
5,C[C@]12CCC(=O)C=C1CC[C@@H]1[C@@H]2C(=O)C[C@@]2(C)[C@H]1CC[C@]2(O)C(=O)CO [Prestw-273],0.688 ± 1.9
6,COC(=O)[C@H](c1ccccc1Cl)N1CCc2sccc2C1,0.656 ± 1.3
7,COCCCC/C(=N\OCCN)c1ccc(C(F)(F)F)cc1 [Prestw-995],1.07 ± 1.1
8,"CC(=O)[C@@]12O[C@](C)(c3ccccc3)O[C@@H]1C[C@H]1[C@@H]3CCC4=CC(=O)CC[C@]4(C)[C@H]3CC[C@@]12C [ALGESTERONE ACETOPHENIDE, progestin]",2.89 ± 0.3
9,NC(=O)c1ccccc1O [SALICYLAMIDE    Therap cat:  Analgesic],1.6 ± 2.8
10,"Nc1nc(F)nc2c1ncn2[C@@H]1O[C@H](COP(=O)(O)O)[C@@H](O)[C@@H]1O [FLUDARABINE PHOSPHATE, antineoplastic]",1.14 ± 2.1
11,CCOC(=O)N1CCC(=C2c3ccc(Cl)cc3CCc3cccnc32)CC1 [Prestw-1432],-1.11 ± 1
12,Oc1c(Br)cc(Br)c2cccnc12 [BROXYQUINOLINE    Therap cat:  Antiseptic; disinfectant],1.5 ± 1.1
13,c1ccc(CC2=NCCN2)cc1 [Prestw-60],1.52 ± 3.5
14,OCCN1CCN(CCCN2c3ccccc3Sc3ccc(C(F)(F)F)cc32)CC1 [Prestw-320],-1.31 ± 0.3
15,CC(C)(Oc1ccc(CCNC(=O)c2ccc(Cl)cc2)cc1)C(=O)O [Prestw-378],0.359 ± 2.2
16,O=C(O)CCc1nc(-c2ccccc2)c(-c2ccccc2)o1 [Prestw-1060],-0.235 ± 0.8
17,O=C1c2ccccc2C(=O)C1c1ccccc1 [Prestw-538],0.147 ± 1.4
18,Clc1ccc2c(c1)C(N1CCNCC1)=Nc1ccccc1O2 [Prestw-102],-1.51 ± 0.22
19,CC(C)N=C(N)/N=C(\N)Nc1ccc(Cl)cc1 [Prestw-999],0.707 ± 0.52
20,CC[C@H]1OC(=O)[C@H](C)[C@@H](O[C@H]2C[C@@](C)(OC)[C@@H](O)[C@H](C)O2)[C@H](C)[C@@H](O[C@@H]2O[C@H](C)C[C@H](N(C)C)[C@H]2O)[C@](C)(O)C[C@@H](C)C(=O)[C@H](C)[C@@H](O)[C@]1(C)O [Prestw-151],0.451 ± 1.2
21,CC[C@H]1OC(=O)[C@H](C)[C@@H](O[C@H]2C[C@@](C)(OC)[C@@H](O)[C@H](C)O2)[C@H](C)[C@@H](O[C@@H]2O[C@H](C)C[C@H](N(C)C)[C@H]2O)[C@](C)(O)C[C@@H](C)C(=O)[C@H](C)[C@@H](O)[C@]1(C)O,0.0273 ± 0.19
22,CO[C@H]1/C=C/O[C@@]2(C)Oc3c(C)c(O)c4c(O)c(c(/C=N/N5CCN(C)CC5)c(O)c4c3C2=O)NC(=O)/C(C)=C\C=C\[C@H](C)[C@H](O)[C@@H](C)[C@@H](O)[C@@H](C)[C@H](OC(C)=O)[C@@H]1C [Prestw-525],-0.481 ± 0.75
23,CC=C(C)C(=O)OC1C(OC(C)=O)C2(CO)C(O)CC3(C)C(=CCC4C5(C)CCC(OC6OC(C(=O)O)C(OC7OC(CO)C(O)C(O)C7O)C(O)C6OC6OC(CO)C(O)C(O)C6O)C(C)(CO)C5CCC43C)C2CC1(C)C (configuration not stated) [Prestw-676],-1.27 ± 0.33
